Literature values, collected in patent US9309514B2, “G protein-coupled purinergic receptor Gpr17 mediates orexigenic effects of FoxO1 in AgRP neurons” (THE TRUSTEES OF COLUMBIA UNIVERSITY IN THE CITY OF NEW YORK, priority 2012, dated 2016).

Test system: platelet
Conditions: cited from earlier work

SMILES: CSCCNc1nc(SCCC(F)(F)F)nc2c1ncn2[C@@H]1O[C@H](COP(=O)(O)OP(=O)(O)C(Cl)(Cl)P(=O)(O)O)[C@@H](O)[C@H]1O [cangrelor, [dichloro-[[[(2R,3S,4R,5R)-3,4-dihydroxy-5-[6-(2-methylsulfanylethylamino)-2-(3,3,3-trifluoropropylsulfanyl)purin-9-yl]oxolan-2-yl]methoxy-hydroxyphosphoryl]oxy-hydroxyphosphoryl]methyl]phosphonic acid]
- time to peak inhibition (infusion of 4-μg/kg per minute): 15 min
- time to return to normal platelet function (patients treated with cangrelor as an anticoagulant): 60 min
